These are yes or no findings as the source states them, for the method shown. Binding seen in cells or lysates may run through a third protein. Binding calls can cover weak binding; strength is not graded here. Tags and fused reporters may be left off the sequences shown.

The target of the assay is T1, FLAG-tagged CycK protein (human) (UniProt O75909).
T1 sequence: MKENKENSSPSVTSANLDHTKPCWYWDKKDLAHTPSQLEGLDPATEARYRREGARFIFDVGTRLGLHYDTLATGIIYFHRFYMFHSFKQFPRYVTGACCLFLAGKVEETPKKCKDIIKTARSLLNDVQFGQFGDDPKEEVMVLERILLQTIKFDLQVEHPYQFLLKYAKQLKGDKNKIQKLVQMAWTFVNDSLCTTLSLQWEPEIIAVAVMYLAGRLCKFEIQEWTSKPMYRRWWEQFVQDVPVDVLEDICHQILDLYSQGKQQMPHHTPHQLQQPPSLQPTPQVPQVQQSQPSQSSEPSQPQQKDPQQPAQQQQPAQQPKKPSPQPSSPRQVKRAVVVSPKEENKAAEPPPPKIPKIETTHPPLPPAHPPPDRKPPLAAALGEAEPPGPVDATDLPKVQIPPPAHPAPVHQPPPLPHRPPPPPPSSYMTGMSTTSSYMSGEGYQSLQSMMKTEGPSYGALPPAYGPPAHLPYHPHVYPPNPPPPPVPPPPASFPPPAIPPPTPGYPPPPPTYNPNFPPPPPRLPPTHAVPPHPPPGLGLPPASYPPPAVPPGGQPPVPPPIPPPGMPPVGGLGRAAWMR
In words: co-IP.

Turning to “HIV-1 Nef (from the WT HIV-1 proviral vector)”, the binding result is reported as “binds”.
